Data from the supplement of paper PMC11732987, “Enantioselective OTUD7B fragment discovery through chemoproteomics screening and high-throughput optimisation” (Communications Chemistry, 2025).
The other results are listed elsewhere or left out. The data scatter; read single values as rough.

Amino acid sequences for entries named in this document (tags omitted). A change or cut given only in a name is not applied to a line headed by its entry. Residues count along the entry.
UniProt P54132, 605-629: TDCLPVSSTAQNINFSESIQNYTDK
UniProt Q96BY7: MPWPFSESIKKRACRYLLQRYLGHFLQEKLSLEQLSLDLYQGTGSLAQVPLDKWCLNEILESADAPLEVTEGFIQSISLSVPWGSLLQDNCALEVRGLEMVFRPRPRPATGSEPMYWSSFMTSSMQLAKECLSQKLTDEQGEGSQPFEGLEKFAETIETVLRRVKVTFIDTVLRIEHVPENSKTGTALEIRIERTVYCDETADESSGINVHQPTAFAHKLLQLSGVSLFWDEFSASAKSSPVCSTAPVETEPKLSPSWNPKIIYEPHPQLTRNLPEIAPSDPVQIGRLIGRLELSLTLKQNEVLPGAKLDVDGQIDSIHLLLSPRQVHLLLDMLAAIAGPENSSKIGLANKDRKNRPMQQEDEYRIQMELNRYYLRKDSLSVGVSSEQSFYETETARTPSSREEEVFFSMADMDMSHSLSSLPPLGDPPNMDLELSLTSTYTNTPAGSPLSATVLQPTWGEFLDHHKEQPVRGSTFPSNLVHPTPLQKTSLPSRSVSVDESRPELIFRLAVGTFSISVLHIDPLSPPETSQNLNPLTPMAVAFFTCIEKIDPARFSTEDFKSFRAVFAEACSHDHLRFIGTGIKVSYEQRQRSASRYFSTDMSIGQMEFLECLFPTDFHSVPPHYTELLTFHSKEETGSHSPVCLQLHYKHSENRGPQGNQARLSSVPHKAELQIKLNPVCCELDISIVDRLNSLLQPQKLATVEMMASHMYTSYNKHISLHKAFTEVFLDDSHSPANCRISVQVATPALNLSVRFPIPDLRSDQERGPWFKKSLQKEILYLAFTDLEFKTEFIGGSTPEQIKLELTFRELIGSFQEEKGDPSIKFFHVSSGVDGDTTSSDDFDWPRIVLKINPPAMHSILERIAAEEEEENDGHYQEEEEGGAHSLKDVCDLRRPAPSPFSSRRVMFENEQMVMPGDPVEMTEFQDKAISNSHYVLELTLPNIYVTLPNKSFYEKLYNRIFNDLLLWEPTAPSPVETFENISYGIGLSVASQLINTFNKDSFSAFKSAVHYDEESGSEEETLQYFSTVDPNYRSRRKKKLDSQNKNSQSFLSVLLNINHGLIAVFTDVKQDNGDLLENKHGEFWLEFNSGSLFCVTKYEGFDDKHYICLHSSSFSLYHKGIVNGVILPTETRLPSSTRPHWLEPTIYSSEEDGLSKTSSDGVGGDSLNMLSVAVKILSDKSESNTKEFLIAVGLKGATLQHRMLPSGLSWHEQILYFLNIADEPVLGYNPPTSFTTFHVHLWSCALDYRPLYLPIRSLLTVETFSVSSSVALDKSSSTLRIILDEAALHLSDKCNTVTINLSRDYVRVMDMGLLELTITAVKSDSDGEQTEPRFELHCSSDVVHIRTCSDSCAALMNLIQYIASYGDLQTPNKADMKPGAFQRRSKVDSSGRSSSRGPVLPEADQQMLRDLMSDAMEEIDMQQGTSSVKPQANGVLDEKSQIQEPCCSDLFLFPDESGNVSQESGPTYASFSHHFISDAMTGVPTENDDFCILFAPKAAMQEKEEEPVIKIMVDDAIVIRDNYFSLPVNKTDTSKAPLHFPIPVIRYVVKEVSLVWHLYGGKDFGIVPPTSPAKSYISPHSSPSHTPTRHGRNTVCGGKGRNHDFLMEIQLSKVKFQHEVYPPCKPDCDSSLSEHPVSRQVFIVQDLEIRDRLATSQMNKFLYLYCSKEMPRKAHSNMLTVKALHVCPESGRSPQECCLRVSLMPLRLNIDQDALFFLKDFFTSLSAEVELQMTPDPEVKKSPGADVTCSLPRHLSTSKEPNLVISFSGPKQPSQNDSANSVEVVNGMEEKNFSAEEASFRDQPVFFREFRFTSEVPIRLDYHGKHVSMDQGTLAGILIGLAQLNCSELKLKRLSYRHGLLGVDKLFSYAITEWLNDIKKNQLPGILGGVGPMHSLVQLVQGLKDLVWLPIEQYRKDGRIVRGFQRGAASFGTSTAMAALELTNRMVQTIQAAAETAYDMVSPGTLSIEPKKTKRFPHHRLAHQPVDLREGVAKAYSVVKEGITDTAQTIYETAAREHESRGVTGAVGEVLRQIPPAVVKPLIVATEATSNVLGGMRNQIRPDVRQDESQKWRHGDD
UniProt Q5T9A4, 546-566: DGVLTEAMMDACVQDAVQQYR
UniProt Q96DT6, 58-81: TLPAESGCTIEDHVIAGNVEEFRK
UniProt Q13315: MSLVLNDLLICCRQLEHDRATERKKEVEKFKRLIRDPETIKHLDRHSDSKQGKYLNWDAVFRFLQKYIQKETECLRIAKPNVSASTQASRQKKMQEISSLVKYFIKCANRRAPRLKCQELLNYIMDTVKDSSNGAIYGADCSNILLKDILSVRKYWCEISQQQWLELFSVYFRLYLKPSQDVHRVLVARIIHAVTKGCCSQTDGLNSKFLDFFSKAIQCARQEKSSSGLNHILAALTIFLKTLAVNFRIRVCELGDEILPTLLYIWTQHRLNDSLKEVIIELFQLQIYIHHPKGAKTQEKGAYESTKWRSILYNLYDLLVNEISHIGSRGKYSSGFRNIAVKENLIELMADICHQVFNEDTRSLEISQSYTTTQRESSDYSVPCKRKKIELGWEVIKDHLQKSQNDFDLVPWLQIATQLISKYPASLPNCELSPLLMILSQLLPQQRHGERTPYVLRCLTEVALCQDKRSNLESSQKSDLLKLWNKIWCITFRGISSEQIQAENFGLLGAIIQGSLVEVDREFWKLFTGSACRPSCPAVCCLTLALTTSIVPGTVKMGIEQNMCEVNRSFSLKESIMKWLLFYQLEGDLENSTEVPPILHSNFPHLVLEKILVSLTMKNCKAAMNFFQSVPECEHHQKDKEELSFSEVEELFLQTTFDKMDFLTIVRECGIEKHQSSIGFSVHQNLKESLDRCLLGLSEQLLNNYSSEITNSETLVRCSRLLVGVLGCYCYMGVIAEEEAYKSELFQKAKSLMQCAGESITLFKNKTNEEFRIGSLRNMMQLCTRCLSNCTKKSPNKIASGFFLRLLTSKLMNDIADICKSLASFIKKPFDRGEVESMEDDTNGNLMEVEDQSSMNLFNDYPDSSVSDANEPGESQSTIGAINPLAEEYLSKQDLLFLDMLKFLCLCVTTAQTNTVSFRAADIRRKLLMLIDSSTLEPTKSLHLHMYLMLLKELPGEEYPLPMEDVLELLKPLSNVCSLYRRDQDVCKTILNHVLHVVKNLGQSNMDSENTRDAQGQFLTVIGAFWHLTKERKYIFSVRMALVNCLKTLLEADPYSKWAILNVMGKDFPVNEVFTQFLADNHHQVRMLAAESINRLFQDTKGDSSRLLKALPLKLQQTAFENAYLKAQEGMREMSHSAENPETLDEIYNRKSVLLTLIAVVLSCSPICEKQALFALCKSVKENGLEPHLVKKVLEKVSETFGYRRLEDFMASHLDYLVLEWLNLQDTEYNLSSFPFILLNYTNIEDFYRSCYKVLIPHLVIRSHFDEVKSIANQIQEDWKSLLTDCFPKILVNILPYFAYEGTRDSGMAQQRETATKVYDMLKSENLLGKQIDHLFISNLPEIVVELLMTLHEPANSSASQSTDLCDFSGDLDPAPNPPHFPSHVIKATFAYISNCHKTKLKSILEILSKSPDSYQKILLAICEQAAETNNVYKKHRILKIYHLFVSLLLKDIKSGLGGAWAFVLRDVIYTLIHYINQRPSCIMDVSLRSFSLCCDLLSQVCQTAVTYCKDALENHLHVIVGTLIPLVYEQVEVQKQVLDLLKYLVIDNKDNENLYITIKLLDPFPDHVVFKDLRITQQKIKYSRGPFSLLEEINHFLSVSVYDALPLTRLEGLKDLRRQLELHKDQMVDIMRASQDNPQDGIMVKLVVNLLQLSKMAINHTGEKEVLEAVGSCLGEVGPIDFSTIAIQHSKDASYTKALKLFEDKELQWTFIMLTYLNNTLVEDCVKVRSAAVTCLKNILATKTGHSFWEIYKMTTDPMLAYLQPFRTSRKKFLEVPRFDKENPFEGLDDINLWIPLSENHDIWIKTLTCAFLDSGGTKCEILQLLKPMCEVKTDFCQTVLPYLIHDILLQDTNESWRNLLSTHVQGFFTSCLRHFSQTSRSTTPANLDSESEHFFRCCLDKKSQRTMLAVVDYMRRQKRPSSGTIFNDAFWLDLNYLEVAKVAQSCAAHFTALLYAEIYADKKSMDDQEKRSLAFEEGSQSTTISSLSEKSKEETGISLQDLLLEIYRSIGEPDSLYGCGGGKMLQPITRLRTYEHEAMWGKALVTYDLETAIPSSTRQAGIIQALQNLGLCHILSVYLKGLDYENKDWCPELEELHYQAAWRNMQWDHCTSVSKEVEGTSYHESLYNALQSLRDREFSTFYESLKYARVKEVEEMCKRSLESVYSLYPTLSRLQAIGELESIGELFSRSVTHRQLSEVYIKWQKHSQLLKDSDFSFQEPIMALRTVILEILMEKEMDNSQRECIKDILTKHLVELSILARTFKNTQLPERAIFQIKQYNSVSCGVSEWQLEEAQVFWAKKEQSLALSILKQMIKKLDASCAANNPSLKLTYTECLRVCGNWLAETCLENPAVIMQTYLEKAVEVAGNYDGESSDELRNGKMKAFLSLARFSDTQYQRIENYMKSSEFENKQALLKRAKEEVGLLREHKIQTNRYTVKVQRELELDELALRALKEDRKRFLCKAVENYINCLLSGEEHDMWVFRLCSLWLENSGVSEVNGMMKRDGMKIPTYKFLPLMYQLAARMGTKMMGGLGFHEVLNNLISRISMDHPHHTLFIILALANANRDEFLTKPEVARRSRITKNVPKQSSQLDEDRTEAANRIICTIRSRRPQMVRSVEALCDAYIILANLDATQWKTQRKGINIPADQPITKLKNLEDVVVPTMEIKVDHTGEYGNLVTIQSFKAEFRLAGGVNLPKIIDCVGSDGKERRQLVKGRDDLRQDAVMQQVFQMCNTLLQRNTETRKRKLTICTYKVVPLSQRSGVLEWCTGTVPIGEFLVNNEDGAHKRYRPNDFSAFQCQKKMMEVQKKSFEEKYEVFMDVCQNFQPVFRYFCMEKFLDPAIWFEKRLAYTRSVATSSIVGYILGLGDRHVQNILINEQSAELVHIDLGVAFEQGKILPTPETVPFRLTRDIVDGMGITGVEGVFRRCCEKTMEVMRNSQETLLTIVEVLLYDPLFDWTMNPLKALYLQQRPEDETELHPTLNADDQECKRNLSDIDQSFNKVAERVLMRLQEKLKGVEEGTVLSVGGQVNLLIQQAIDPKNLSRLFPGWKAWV
UniProt Q9BUT1: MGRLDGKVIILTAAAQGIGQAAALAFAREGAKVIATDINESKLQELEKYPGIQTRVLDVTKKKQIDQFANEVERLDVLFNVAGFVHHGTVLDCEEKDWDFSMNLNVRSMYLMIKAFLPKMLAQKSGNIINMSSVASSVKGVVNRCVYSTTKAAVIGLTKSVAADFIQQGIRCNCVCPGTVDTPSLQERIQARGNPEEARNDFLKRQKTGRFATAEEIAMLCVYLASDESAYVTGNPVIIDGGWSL
UniProt P0C7T5, 634-655: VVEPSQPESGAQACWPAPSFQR
UniProt P08243: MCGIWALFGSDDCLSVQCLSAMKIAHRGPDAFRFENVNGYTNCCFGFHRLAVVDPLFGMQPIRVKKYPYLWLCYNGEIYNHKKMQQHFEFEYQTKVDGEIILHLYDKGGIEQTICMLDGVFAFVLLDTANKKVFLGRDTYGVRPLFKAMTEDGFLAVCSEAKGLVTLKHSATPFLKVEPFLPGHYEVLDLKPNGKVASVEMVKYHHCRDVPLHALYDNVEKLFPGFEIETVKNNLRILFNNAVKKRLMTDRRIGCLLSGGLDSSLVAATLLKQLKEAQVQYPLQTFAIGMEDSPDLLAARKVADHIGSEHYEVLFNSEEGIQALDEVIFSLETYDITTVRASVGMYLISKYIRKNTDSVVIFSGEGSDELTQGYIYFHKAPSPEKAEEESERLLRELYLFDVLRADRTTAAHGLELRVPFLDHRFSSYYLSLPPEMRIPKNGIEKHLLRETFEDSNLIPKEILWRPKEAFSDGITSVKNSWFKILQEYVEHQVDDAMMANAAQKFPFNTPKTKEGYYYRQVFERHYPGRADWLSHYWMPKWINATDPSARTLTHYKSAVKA
UniProt Q6P4H8: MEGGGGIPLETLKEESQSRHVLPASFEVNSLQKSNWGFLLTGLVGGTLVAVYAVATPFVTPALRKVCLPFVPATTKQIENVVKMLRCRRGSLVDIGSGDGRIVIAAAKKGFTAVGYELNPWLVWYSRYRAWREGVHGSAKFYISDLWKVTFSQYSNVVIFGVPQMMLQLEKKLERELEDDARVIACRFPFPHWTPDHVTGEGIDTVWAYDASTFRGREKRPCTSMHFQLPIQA
UniProt Q04656, 270-289: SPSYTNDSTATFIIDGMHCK
UniProt Q8N5M1: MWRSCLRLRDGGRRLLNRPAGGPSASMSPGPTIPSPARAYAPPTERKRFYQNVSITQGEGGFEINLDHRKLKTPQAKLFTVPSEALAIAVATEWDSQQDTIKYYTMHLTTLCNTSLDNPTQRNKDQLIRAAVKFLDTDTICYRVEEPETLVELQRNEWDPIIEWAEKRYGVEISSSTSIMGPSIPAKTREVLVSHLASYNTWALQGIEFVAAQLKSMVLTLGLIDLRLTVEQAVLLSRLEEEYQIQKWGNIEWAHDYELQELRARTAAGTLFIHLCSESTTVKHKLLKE
UniProt Q9NQS1, 313-335: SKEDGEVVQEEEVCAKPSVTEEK

Assays:
[1] = compound: ClCC(=O)N[C@@H]1CCCc2ccccc12; experiment: log2 mean competition ratio of IA-DTB cysteine labelling (DMSO/compound) (log2 ratio); higher = stronger cysteine engagement by compound; settings: treatment time: 4 h, cell line lysate: HEK293T
Experimental: (§1)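 IA-DTB competitive cysteine chemoproteomics in HEK293T RIPA lysate. Lysates were treated with compound 29 or 30 at 50 or 200 µM for 4 h, then IA-DTB (500 µM, 1 h), trypsin-digested, NeutrAvidin-enriched and analysed by diaPASEF. Competition ratio = intensity DMSO / intensity compound (n=4 treated, n=64 DMSO); binding: mean log2 CR ≥ 1 and p ≤ 0.05 plus QC filters. Target is the cysteine site.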

[2] = compound: ClCC(=O)N[C@H]1CCCc2ccccc12; experiment: as above; settings: treatment time: 4 h, cell line lysate: HEK293T
Experimental: as §1

Target	log2 mean competition ratio ([1]; 50 µM)	log2 mean competition ratio ([1]; 200 µM)	log2 mean competition ratio ([2]; 50 µM)	log2 mean competition ratio ([2]; 200 µM)
ATG2A C1870 (UniProt Q2TAZ0)	-0.182	0.167	-0.456	0.271
ATP2B4 C24 (UniProt P23634)	-0.144	-0.394	0.0161	0.0319
BLM C607 (UniProt P54132)	0.0698	-0.0511	0.743	-0.0061
ATP13A2 C401 (UniProt Q9NQ11)	-0.0953	0.232	-0.407	-0.034
ASXL2 C1166 (UniProt Q76L83)	0.204	0.236	-0.159	0.355
ASPM C441 (UniProt Q8IZT6)	0.0138	0.372	0.171	0.168
ATP6V1B2 C112 (UniProt P21281)	-0.0322	-0.265	0.326	-0.199
ATR C38 (UniProt Q13535)	-0.119	-0.21	-0.136	-0.192
BCAM C522	0.00831	0.196	0.0544	0.207
BAG5 C360 (UniProt Q9UL15)	0.16	-0.203	0.0725	-0.306
ATF2 C418 (UniProt P15336)	0.512	-0.0301	0.334	0.113
BLOC1S3 C180 (UniProt Q6QNY0)	0.599	0.182	0.656	0.00922
ATP6V1A C138 (UniProt P38606)	0.0925	0.435	0.212	0.893
BAZ1A C586 (UniProt Q9NRL2)	-0.144	-0.05	0.091	0.125
ATF6B C340 (UniProt Q99941)	-0.00523	0.446	-0.0392	0.371
BBX C682 (UniProt Q8WY36)	0.102	0.2	0.0692	0.104
ATR C1198 (UniProt Q13535)	0.379	0.0692	0.241	0.0677
ATG2B C243 (UniProt Q96BY7)	0.118	0.127	-0.289	0.0152
ATP2B4 C632 (UniProt P23634)	-0.141	-0.0653	0.0584	0.113
ATG2A C1270 (UniProt Q2TAZ0)	-0.175	0.194	-0.372	0.2

Target	log2 mean competition ratio ([1]; 50 µM)	log2 mean competition ratio ([1]; 200 µM)	log2 mean competition ratio ([2]; 50 µM)	log2 mean competition ratio ([2]; 200 µM)
BIRC6 C1319	0.382	0.0286	-0.132	-0.0455
BCORL1 C972 (UniProt Q5H9F3)	0.0197	-0.0493	-0.124	0.183
BAP18 C66 (UniProt Q8IXM2)	-0.157	-0.174	-0.0689	-0.136
ATP5F1E;ATP5F1EP2 C19;(C19)	0.0392	-0.368	0.755	0.00592
ATP2A2 C471 (UniProt P16615)	-0.0494	-0.0877	0.102	-0.0453
ASPSCR1 C174 (UniProt Q9BZE9)	-0.269	-0.318	0.224	-0.00482
ATAD3B C557 (UniProt Q5T9A4)	0.422	-0.0503	0.189	-0.167
ATG4C C65 (UniProt Q96DT6)	-0.235	-0.321	-0.401	-0.543
ASXL3 C838 (UniProt Q9C0F0)	-0.264	-0.0297	-0.088	0.168
ATM C1736 (UniProt Q13315)	-0.0681	-0.00532	-0.147	0.0757
BCOR C979 (UniProt Q6W2J9)	-0.0311	0.247	0.37	0.249
ATG2B C739 (UniProt Q96BY7)	0.0183	-0.194	-0.244	0.0482
BBX C150 (UniProt Q8WY36)	0.577	-0.0855	0.407	-0.0916
BDH2 C145 (UniProt Q9BUT1)	-0.212	-0.2	-0.028	-0.24
ATXN1L C647 (UniProt P0C7T5)	-0.142	0.367	0.0918	0.659
ASNS C158 (UniProt P08243)	-0.235	-0.115	-0.408	-0.517
BLZF1 C329 (UniProt Q9H2G9)	0.14	0.206	-0.0139	0.0588
ATPSCKMT C67 (UniProt Q6P4H8)	-0.105	-0.0716	-0.577	-0.0791
ATM C2323 (UniProt Q13315)	0.246	-0.0682	0.0423	-0.18
ATP7A C288 (UniProt Q04656)	0.249	-0.073	0.434	0.252

Target	log2 mean competition ratio ([1]; 50 µM)	log2 mean competition ratio ([1]; 200 µM)	log2 mean competition ratio ([2]; 50 µM)	log2 mean competition ratio ([2]; 200 µM)
ATPAF2 C276 (UniProt Q8N5M1)	-0.0194	-0.118	0.413	-0.356
ATP13A1 C345 (UniProt Q9HD20)	0.156	-0.643	0.655	-0.259
BAZ2A C726 (UniProt Q9UIF9)	-0.164	0.25	-0.204	-0.321
ATP11B C629 (UniProt Q9Y2G3)	-0.228	0.0315	0.0842	0.133
BCAR3 C261 (UniProt O75815)	0.248	0.171	-0.0227	0.116
AVEN C169 (UniProt Q9NQS1)	-0.00448	-0.0232	-0.158	-0.0679
AVEN C326 (UniProt Q9NQS1)	-0.443	-0.26	0.0196	-0.348
BAIAP2L1 C229 (UniProt Q9UHR4)	-0.366	0.0524	-0.711	0.0776
ATP6V0D1 C335 (UniProt P61421)	-0.388	-0.0622	-0.00408	-0.204
BICD2 C754 (UniProt Q8TD16)	-0.162	0.346	0.151	0.166
ATAD5 C909 (UniProt Q96QE3)	0.137	0.135	0.00489	-0.0135
BAZ1A C547 (UniProt Q9NRL2)	-0.142	0.179	-0.339	0.262
BACH1 C224 (UniProt O14867)	0.0104	0.114	-0.0479	0.0666
BCL9 C64 (UniProt O00512)	0.13	0.0851	0.0147	0.0902
ATG2B C1688 (UniProt Q96BY7)	0.0848	-0.0226	-0.242	-0.294
ATL2 C441 (UniProt Q8NHH9)	-0.241	0.178	-0.225	0.243
BCOR C1311 (UniProt Q6W2J9)	-0.218	0.0247	-0.302	-0.0792
ATP2A3 C636 (UniProt Q93084)	0.23	-0.152	0.48	-0.0452
BAIAP2L1 C182 (UniProt Q9UHR4)	-0.231	0.035	0.108	0.0474

Two neighbouring records out of the list so far:
Target	log2 mean competition ratio ([1]; 50 µM)	log2 mean competition ratio ([1]; 200 µM)	log2 mean competition ratio ([2]; 50 µM)	log2 mean competition ratio ([2]; 200 µM)
ATPSCKMT C67 (UniProt Q6P4H8)	-0.105	-0.0716	-0.577	-0.0791
ATM C2323 (UniProt Q13315)	0.246	-0.0682	0.0423	-0.18
